Results as given in PMC2852384.
Results are given in words; binding and its absence hold for the method and conditions named. Binding seen in cells or lysates may run through a third protein. Some binding calls cover weakened binding; strength is not graded here.

Sequences of proteins named here, by UniProt entry; tags and fusion partners are left off. A change or cut given only in a name is not applied to a line headed by its entry. A line that says so, or that is headed by a name, gives the form on record, which may keep a tag or linker.
UniProt Q96DX5: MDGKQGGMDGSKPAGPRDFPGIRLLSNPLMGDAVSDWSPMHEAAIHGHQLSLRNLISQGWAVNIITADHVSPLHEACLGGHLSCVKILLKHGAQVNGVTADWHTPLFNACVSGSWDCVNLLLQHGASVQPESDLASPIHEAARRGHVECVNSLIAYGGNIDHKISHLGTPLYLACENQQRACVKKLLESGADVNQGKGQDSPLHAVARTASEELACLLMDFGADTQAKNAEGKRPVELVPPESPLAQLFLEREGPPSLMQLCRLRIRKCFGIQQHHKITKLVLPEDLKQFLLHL
Myc-tagged ASB9ΔSOCS (natural splicing variant of ASB9 that lacks the SOCS box) (Q96DX5, form named): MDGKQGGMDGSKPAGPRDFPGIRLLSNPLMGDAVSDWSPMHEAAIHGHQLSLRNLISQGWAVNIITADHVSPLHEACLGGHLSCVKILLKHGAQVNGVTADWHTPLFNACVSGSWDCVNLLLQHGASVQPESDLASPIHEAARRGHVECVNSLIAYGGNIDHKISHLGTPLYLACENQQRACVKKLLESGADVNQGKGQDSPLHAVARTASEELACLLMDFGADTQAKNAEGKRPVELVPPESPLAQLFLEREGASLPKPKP

Tests used:
[1] = target: Myc-tagged human ankyrin repeat and SOCS box protein 9 (ASB9) (human) (UniProt Q96DX5); experiment: co-IP; Myc-tagged ASB9, ASB9ΔSOCS or ANK deletion mutants transiently cotransfected with HA-tagged uMtCK or uMtCKΔBS into HEK293 cells; anti-Myc immunoprecipitates, immunoblot with anti-Myc or anti-HA
[2] = target: Myc-tagged ASB9ΔSOCS (natural splicing variant of ASB9 that lacks the SOCS box) (human) (UniProt Q96DX5); experiment: as above
[3] = target: Myc-tagged human ankyrin repeat and SOCS box protein 9 (ASB9) (human) (UniProt Q96DX5); experiment: co-IP; anti-Myc immunoprecipitates from lysates of HEK293 cells stably expressing empty vector, Myc-tagged ASB9 or ASB9ΔSOCS; immunoblot for endogenous CKB, uMtCK and elongin B; IP buffer 10 mM HEPES pH 7.4, 150 mM NaCl, 5 mM EDTA, 1.0% NP-40, 4°C
[4] = target: Myc-tagged ASB9ΔSOCS (natural splicing variant of ASB9 that lacks the SOCS box) (human) (UniProt Q96DX5); experiment: as above
[5] = target: endogenous ASB9 (human (endogenous in HEK293 and Huh-7)) (UniProt Q96DX5); experiment: co-IP; endogenous proteins: anti-ASB9 immunoprecipitates from lysates of HEK293 and Huh-7 cells; immunoblot with anti-ASB9, anti-CKB, anti-uMtCK and anti-elongin B

## haemagglutinin (HA)-tagged uMtCK (from UniProt P12532 40-417) (enzyme)
[1]
  binding: binds
[2]
  binding: binds

## ubiquitous mitochondrial creatine kinase (uMtCK), endogenous (from UniProt P12532 40-417) (enzyme)
[3]
  binding: binds
[4]
  binding: binds
[5]
  binding: binds
